Laboratory results published in article PMC8304497.

Biological target: T1, Neuronal cell adhesion molecule 2, isoform NCAM2.1 (mouse (endogenous in cerebral cortex)) (UniProt O35136)
T1 sequence: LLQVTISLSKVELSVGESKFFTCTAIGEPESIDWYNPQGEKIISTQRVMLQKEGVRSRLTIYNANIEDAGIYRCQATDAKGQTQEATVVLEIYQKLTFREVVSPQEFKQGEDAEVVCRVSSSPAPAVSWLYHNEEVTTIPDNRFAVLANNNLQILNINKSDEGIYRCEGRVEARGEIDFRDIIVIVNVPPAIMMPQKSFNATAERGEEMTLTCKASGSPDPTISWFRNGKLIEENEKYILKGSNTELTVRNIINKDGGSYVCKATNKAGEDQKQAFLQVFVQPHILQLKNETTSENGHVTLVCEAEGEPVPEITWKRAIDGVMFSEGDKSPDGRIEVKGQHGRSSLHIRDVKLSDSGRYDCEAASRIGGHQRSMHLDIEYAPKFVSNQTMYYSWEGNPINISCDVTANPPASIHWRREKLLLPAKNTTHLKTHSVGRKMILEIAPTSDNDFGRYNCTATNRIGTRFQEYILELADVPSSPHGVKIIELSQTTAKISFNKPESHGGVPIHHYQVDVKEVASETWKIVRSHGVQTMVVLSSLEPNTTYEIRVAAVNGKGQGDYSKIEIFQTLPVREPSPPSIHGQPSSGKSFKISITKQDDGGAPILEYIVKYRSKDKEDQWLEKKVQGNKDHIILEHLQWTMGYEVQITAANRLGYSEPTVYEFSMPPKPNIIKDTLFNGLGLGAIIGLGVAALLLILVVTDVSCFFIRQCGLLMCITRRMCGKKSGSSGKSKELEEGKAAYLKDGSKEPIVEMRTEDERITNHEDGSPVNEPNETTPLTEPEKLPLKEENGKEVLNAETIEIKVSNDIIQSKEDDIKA
Experiment: co-IP; eluates of the antibody-conjugated magnetic beads (as for the mass spectrometry) blotted for NCAM2; membrane fraction of postnatal mouse cortex

binding: binds
Substance: Neuronal cell adhesion molecule 2, isoform NCAM2.2 (mouse (endogenous in cerebral cortex))

No constants are given. Whether binding was seen depends on the method and setting. Binding seen in cells or lysates may run through a third protein. Binding can be weak; no strength is given.
